Results: PMC3364200
Results are given in words; binding and its absence hold for the method and conditions named. Binding calls can cover weak binding; strength is not graded here.

What was measured:
[1] = target: T1, ANKRD26 bait 10, interacting region aa 1519–1702 (human) (UniProt Q9UPS8); test: two-hybrid; GAL4-based screen by Myriad Genetics: 18 overlapping ANKRD26 fragments as baits (fused to Gal4 DNA binding domain) in PNY200, mated with cDNA library preys (human brain, human testis, mouse 11.5-day embryo; fused to Gal4 activation domain) in BK100; confirmed in naive yeast by liquid culture beta-galactosidase assays
T1 sequence: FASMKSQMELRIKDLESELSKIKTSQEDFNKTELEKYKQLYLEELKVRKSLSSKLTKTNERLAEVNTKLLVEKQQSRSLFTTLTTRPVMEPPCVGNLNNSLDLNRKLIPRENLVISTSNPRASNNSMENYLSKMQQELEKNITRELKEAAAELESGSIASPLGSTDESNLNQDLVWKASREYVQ

[2] = target: T2, ANKRD26 bait 17, interacting region aa 1320–1535 (human) (UniProt Q9UPS8); test: as above
T2 sequence: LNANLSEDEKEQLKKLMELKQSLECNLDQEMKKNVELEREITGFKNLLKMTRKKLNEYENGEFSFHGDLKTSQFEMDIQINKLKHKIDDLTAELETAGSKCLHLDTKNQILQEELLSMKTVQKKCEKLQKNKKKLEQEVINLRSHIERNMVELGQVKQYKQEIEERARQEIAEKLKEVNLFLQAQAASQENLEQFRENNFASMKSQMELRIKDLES

| Substance | binding [1] | binding [2] |
| --- | --- | --- |
| Triple functional domain (PTPRF interacting), isoform 5 (two-hybrid prey) (mouse) | binds | – |
| Fb1 (two-hybrid prey) (mouse) | – | binds |
| Chromosome 1 open reading frame 9, isoform 1 (two-hybrid prey) (human) | – | binds |
